Laboratory results: the supplement of paper PMC12823440, “Inhibitors supercharge kinase turnover through native proteolytic circuits” (Nature, 2025)
Where a name gives a salt, the structure may show the parent alone. Some of the results follow. Hit calls seldom repeat between salt and free forms of one compound.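 Kinases, fused to nanoluciferase, were expressed in K562 cells; luminescence was measured every 4 h from 2 to 18 h as percent of control (DMSO = 100%, positive control = 0%). A time point is decreased if signal falls significantly (2 sigma). Hits were called by the authors by a rule that is not shown; the count of time points alone does not decide it.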

Chains of the proteins cited; added tags and fusions are not shown. Lines headed by an entry give the natural chain unless they say otherwise; changes in a name come on top.
UniProt P48730: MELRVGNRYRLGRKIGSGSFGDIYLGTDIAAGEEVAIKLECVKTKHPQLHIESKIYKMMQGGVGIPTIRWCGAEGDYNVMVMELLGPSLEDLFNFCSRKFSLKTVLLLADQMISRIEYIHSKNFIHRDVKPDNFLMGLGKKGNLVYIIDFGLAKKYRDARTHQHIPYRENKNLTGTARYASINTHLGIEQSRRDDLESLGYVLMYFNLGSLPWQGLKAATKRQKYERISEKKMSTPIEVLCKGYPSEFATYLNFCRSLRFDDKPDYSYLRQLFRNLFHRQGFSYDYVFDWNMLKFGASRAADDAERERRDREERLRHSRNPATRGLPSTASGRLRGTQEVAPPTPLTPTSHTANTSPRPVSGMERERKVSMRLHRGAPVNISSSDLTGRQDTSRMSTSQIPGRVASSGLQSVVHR

Each compound was assayed against CSNK1D (UniProt P48730) (assay: kinase-Nluc reporter destabilization hit call (1 = scored as downregulated) (binary); higher = compound decreases kinase abundance). Settings: 2.5 µM; K562; 2-18 h.

kinase-Nluc reporter destabilization hit call, inactive:
C=CC(=O)Nc1cc(Nc2nccc(-c3cn(C)c4ccccc34)n2)c(OC)cc1N(C)CCN(C)C [Osimertinib mesylate] 0
c1cc(-c2cnn3cc(-c4ccc(OCCN5CCCCC5)cc4)cnc23)ccn1 [Dorsomorphin] 0
CN(C)C/C=C/C(=O)Nc1cc2c(Nc3ccc(F)c(Cl)c3)ncnc2cc1O[C@H]1CCOC1 [Afatinib (dimaleate)] 0
C=CC(=O)Nc1cc(Nc2nccc(-c3cn(C)c4ccccc34)n2)c(OC)cc1N(C)CCN(C)C [Osimertinib] 0
CN(C)C(=O)c1cc2cnc(Nc3ccc(N4CCNCC4)cn3)nc2n1C1CCCC1 [Ribociclib hydrochloride] 0
COc1ccc(S(=O)(=O)Nc2ccccc2CN(C)C/C=C/c2ccc(Cl)cc2)cc1 [KN-92 (hydrochloride)] 0
COc1ccc(S(=O)(=O)Nc2ccccc2CN(C)C/C=C/c2ccc(Cl)cc2)cc1 [KN-92 (phosphate)] 0
